Results are given in words; binding and its absence hold for the method and conditions named. In cells and extracts the contact can be indirect. Binding can be weak; no strength is given. For part of these data: Where a sequence is shown, tags or fusion partners need not be part of it. Each block holds one binder with its values, some of them ahead of it.
Legend:
[1] = target: SFB-tagged HAT domain of human OGA (C-OGA) (human); experiment: co-IP; SFB-OGA constructs expressed in 293T cells, with Myc-tagged or endogenous NONO, Ku70, Ku80; lysed with NETN300 buffer; IP and western blot; with or without 10 Gy of IR
[2] = target: SFB-tagged HAT domain of human OGA (C-OGA) (human); experiment: co-IP; two-step co-IP from 293T cells transfected with SFB-C-OGA, after DNA damage: streptavidin beads first, then anti-NONO or anti-Ku70/80 antibodies; western blot (O-GlcNAc)

binding [1]: binds
B1: endogenous NONO (protein, UniProt Q15233 1-471)
chain: MQSNKTFNLEKQNHTPRKHHQHHHQQQHHQQQQQQPPPPPIPANGQQASSQNEGLTIDLKNFRKPGEKTFTQRSRLFVGNLPPDITEEEMRKLFEKYGKAGEVFIHKDKGFGFIRLETRTLAEIAKVELDNMPLRGKQLRVRFACHSASLTVRNLPQYVSNELLEEAFSVFGQVERAVVIVDDRGRPSGKGIVEFSGKPAARKALDRCSEGSFLLTTFPRPVTVEPMDQLDDEEGLPEKLVIKNQQFHKEREQPPRFAQPGSFEYEYAMRWKALIEMEKQQQDQVDRNIKEAREKLEMEMEAARHEHQVMLMRQDLMRRQEELRRMEELHNQEVQKRKQLELRQEEERRRREEEMRRQQEEMMRRQQEGFKGTFPDAREQEIRMGQMAMGGAMGINNRGAMPPAPVPAGTPAPPGPATMMPDGTLGLTPPTTERFGQAATMEGIGAIGGTPPAFNRAAPGAEFAPNKRRRY
binding [2]: binds

binding [1]: binds
B2: Myc-NONO (protein, UniProt Q15233 1-471)
chain: B1 chain

From publication PMC8209095
